Plain letter strings leave the end groups untold.
Test: general procedure: Fmoc solid-phase peptide synthesis; Rink Amide MBHA resin (0.075 mmol/g, 100 to 200 mesh, 1% DVB crosslinking); HBTU/DIPEA
Settings: whole synthesis, liquid chromatography, scale of the general procedure 50 mg resin

Which “final purity (method not given)” value does the source give for “GKCSTRGRKSSRRKK (PEPTIDE HAVING ANTIBACTERIAL, …ON OR TISSUE …ON)” here?
The value was 98.2%.

— patent publication US20250115642A1 (priority 2022, published 2025)
